# PubChem BioAssay (Tox21)
# Amino acid sequences for entries named in this document (tags omitted). A change or cut given only in a name is not applied to a line headed by its entry.
# UniProt P11473: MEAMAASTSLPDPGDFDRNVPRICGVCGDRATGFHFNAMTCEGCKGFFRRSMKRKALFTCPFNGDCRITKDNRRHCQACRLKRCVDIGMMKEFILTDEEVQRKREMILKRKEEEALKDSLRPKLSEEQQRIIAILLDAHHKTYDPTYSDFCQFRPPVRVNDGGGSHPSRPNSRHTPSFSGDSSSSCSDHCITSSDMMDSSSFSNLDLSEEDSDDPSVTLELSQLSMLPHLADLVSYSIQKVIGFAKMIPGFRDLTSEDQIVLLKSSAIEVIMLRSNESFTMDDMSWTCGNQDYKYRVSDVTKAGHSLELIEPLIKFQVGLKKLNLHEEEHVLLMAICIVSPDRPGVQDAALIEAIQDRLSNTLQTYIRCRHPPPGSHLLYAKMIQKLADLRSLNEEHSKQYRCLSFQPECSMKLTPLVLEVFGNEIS
# Values joined by “and” are separate entries in the source; they are usually repeats but may differ in a detail not shown here. Equal values may be shown once. Inconclusive results, whose numbers are uncertain, are shown with a selection of clear calls. Potencies beside an inconclusive call are fits to weak or partial responses and may not hold up. Where a structure was tested more than once in an assay, its records may differ in their call. Active and inactive are the calls of the source. The call rests on the fitted dose curve; in most records, active means well fitted inhibition curve with a large enough effect in the signal ratio in the repeat runs (not every such curve was filed as active); inconclusive means weak or mixed curves, or effect the other way; inactive means no such curve, though single readings can be large or run the other way; the % refers to the signal ratio.
# Target: Vitamin D3 receptor (Homo sapiens) (UniProt P11473)
# Test: qHTS assay to identify small molecule antagonists of the vitamin D receptor (VDR) signaling pathway (AID 743223)
# Details: VDR-UAS-bla HEK293T, beta-lactamase FRET ratio, 16 h; activity change, negative = inhibition: at 61 µM (top of the series) unless noted
# Text: U.S. Tox21 Program National Center for Advancing Translational Sciences [NCATS] NIH Chemical Genomics Center [NCGC] U.S. Environmental Protection Agency [EPA] National Institutes of Environmental Health Sciences [NIEHS] National Toxicology Program [NTP] U.S. Food and Drug Administration [FDA] Tox21 Assay Overview: The vitamin D receptor (VDR), a member of nuclear hormone receptor superfamily, plays a critical role in calcium homeostasis and bone metabolism. It is also involved in cell differentiation and growth, and thrombogenicity.
# Tox21 Assay Protocol Summary: VDR-bla cells were dispensed at 2,000 cells/5 uL of assay medium per well into black wall/clear-bottom 1536-well plates using a Multidrop Combi (Thermo Fisher Scientific, Waltham, MA) dispenser. After the assay plates were incubated at a 37C and 5% CO2 for 4 h, 23 nL of compounds dissolved in DMSO, positive controls or DMSO only was transferred to the assay plate by a Pintool station (Kalypsys, San Diego, CA), followed by addition of 1 uL of 1alpha, 25-Dihydroxy Vitamin D3 (3 nM, final concentration in the wells) using a Bioraptr Flying Reagent Dispenser (FRD) workstation (Beckman Coulter, Indianapolis, IN). The plates were incubated at 37C and 5% CO2 for 16 h, and then 1 uL of LiveBLAzerTM B/G FRET substrate was added using a Bioraptr FRD. The plates were incubated at room temperature for 2 h and fluorescence intensity was measured by an Envision plate reader (PerkinElmer, Shelton, CT).
# On the % scale 0 is the no-effect control and ±100 the full control effect; potency means the concentration at half of the fitted maximal effect.
SMILES,"activity change, negative = inhibition",Potency
C=CCN1CC[C@]23c4c5ccc(O)c4O[C@H]2C(=O)CC[C@@]3(O)[C@H]1C5,inconclusive: 0.116%,–
CC#C[C@]1(O)CC[C@H]2[C@@H]3C[C@H](C)C4=CC(=O)CC[C@]4(C)[C@H]3CC[C@@]21C,inconclusive: 26.5%,–
C/C(=C\c1ccccc1)[N+](=O)[O-],–,inconclusive: 49 µM
S=C=Nc1ccccc1,–,"inconclusive: 56.7 µM [activator, single point]"
C[C@]12CCC(=O)C=C1CC[C@@H]1[C@@H]2CC[C@@]2(C)[C@H]1CC[C@]2(C)O,inconclusive: 2.11%,inconclusive: 22.1 µM [fluorescent]
O=C(O)CC(O)(CC(=O)O)C(=O)O,inconclusive: -9.55% [at 6.95 µM],–
CC(C)(C)c1cc([N+](=O)[O-])cc([N+](=O)[O-])c1O,inconclusive: 17.8%,–
CCOc1nc(F)cc2nc(S(=O)(=O)Nc3c(Cl)cccc3Cl)nn12,–,"inconclusive: 21.9 µM [activator, single point]"
O=C(Cl)OCCOCCOC(=O)Cl,inconclusive: -8.18%,–
CCCCCCCCCCCCCl,–,"inconclusive: 1.74 µM [rising, full curve, poor fit]"
N#C/C(N)=C(/N)C#N,–,"inconclusive: 0.0598 µM [activator, full curve, poor fit]"
NC(=S)Nc1ccccc1,inconclusive: 0.324% [at 78.8 µM],–
COC(=O)c1ccccc1S(=O)(=O)NC(=O)Nc1nc(C)nc(OC)n1,–,"inconclusive: 0.0344 µM [rising, full curve, poor fit]"
CC(CC(C#N)(c1ccccc1)c1ccccc1)N(C)C (stereo not given),–,inactive
O=[N+]([O-])c1ccc(Cl)c(Cl)c1,inconclusive: 8.61%,–
CCn1cc[n+](C)c1C,–,"inconclusive: 62.6 µM [fluorescent, single point]"

# Of the compounds above, four contain a Cl atom.
SMILES,"activity change, negative = inhibition",Potency
CCOc1nc(F)cc2nc(S(=O)(=O)Nc3c(Cl)cccc3Cl)nn12,–,"inconclusive: 21.9 µM [activator, single point]"
O=C(Cl)OCCOCCOC(=O)Cl,inconclusive: -8.18%,–
CCCCCCCCCCCCCl,–,"inconclusive: 1.74 µM [rising, full curve, poor fit]"
O=[N+]([O-])c1ccc(Cl)c(Cl)c1,inconclusive: 8.61%,–

# The list goes on:

SMILES,"activity change, negative = inhibition",Potency
CC(=O)C=C(C)C,–,inactive
CSc1ccc(C(=O)C(C)(C)N2CCOCC2)cc1,–,inactive
O=[N+]([O-])c1ccc2ccc3cccc4ccc1c2c34,–,inactive
O=[N+]([O-])C(Br)Br,inconclusive: 0.506%,–
C#CC(C)(C)NC(=O)c1cc(Cl)cc(Cl)c1,inconclusive: 39.6%,–
CCCCCCCCn1cc[n+](C)c1,inconclusive: -1.43% [at 78.8 µM] and inconclusive: 3.17% [at 78.8 µM],"inconclusive: 19.5 µM [rising, partial curve, poor fit]"
CC/C(=N\OC/C=C/Cl)C1=C(O)CC(C2CCOCC2)CC1=O (stereo not given),–,"inconclusive: 0.976 µM [fluorescent, partial curve, poor fit]"
CN(C)C(=S)[S-].CN(C)C(=S)[S-].[Cu+2],–,"inconclusive: 2.99 µM [rising, full curve]"
CCCCCC[N+](=O)[O-],inconclusive: 24.1% [at 78.8 µM],–
C[C@]12CC[C@H]3[C@@H](CC[C@@]45O[C@@H]4C(O)=C(C#N)C[C@]35C)[C@@H]1CC[C@@H]2O,inconclusive: 0.744%,"inconclusive: 0.138 µM [activator, full curve, poor fit]"
c1cncc([C@@H]2CCCCN2)c1,–,inactive
CC(C)C1(C)N=C(c2nc3ccccc3cc2C(=O)O)NC1=O (stereo not given),inconclusive: -0.337% [at 78.8 µM],–
C[N+](C)=CCl,–,inactive
C=CCc1cc(OC)c2c(c1)OCO2,–,inactive
CC(=O)OC(c1ccccc1)C(Cl)(Cl)Cl (stereo not given),inconclusive: -20.9%,–
COC(N)=O,inconclusive: 25%,–

# Same assay, conditions: VDR-UAS-bla HEK293T, beta-lactamase FRET ratio, 16 h; at 61 µM (top of the series)
row,SMILES,"activity change, negative = inhibition"
1,O=[N+]([O-])c1ccc(Cl)c(Cl)c1,inactive: -0.93%
2,c1ccc(N=NNc2ccccc2)cc1,inconclusive: -33.8%
3,Nc1ccc(N)cc1,inconclusive: -22.5%

# Same assay, conditions: VDR-UAS-bla HEK293T, beta-lactamase FRET ratio, 16 h; at 78.8 µM (top of the series)
row,SMILES,"activity change, negative = inhibition"
1,c1ccc(N=NNc2ccccc2)cc1,inconclusive: 0.698%
2,Nc1ccc(N)cc1,inconclusive: 30%
